Assay: Cytotoxicity against human WHCO1 cells after 48 hrs by MTT assay
Conditions: WHCO1, 48 h

With COc1cccc2c1C(=O)c1c(O)c3c(c(O)c1C2=O)C[C@@](O)(C(=O)CO)C[C@@H]3O[C@H]1C[C@H](N)[C@H](O)[C@H](C)O1 [DOXORUBICIN] as the molecule, how does the IC50 read?
Its IC50 is 500 nM.

Reference: ChEMBL document CHEMBL2331249, “Cytotoxicity of lapachol, β-lapachone and related synthetic 1,4-naphthoquinones against oesophageal cancer cells” (Eur J Med Chem, 2013)
